Our source for the binding values is publication PMC4683079.

Holding throughout (test): co-IP; MCF7 cells co-transfected, lysed 48 h later in TBS (50 mM Tris pH 7.5, 150 mM NaCl) with 0.5% NP-40; IP with anti-myc, anti-HA or anti-Flag M2 and Protein A Sepharose at 4°C; five washes with lysis buffer; Western blot
(In general: A western blot detects proteins with antibodies after separation by electrophoresis.)

Assay [1] deals with T1, myc-tagged full-length human PTK7 (PTK7-MT) (human) (UniProt Q13308).
T1 sequence: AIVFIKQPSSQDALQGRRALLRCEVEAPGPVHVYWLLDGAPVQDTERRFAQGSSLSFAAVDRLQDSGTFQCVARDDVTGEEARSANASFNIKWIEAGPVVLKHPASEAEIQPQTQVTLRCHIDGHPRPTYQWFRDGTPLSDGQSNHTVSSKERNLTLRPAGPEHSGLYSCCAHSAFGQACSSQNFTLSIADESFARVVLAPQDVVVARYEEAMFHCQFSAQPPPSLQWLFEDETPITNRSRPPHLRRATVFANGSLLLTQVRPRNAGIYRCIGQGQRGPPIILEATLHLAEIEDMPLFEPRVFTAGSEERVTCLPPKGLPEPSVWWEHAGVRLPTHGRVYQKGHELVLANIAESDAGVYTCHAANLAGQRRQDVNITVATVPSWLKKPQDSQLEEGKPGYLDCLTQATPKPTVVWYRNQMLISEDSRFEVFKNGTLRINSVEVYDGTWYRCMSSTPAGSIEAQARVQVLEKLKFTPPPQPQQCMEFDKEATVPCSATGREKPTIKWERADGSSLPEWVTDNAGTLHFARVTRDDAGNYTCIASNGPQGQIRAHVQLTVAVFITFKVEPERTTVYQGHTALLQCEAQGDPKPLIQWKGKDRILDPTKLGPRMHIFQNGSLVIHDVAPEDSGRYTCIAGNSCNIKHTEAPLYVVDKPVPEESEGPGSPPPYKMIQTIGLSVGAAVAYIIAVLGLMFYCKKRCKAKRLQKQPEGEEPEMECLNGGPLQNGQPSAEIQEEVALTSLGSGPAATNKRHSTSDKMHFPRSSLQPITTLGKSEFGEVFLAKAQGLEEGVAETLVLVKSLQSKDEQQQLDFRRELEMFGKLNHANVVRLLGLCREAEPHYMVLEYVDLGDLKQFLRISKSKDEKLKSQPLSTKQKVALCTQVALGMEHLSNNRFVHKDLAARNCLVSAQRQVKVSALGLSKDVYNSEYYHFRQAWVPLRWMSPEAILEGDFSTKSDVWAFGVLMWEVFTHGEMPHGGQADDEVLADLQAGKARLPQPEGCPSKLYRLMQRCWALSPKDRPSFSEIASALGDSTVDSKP

A further assay addresses Ror2Δ745-Flag.
Another assay concerns the target Ror2ΔCRD/KR∆745-Flag.
Assay [2] concerns the target mouse Ror2∆469-Flag (mouse).

No constants are given. Whether binding was seen depends on the method and setting. Binding seen in cells or lysates may run through a third protein. A result given as binding can be weak or reduced; the word gives no strength. Sequences can lack the tags named with a protein.

Take Xenopus Ror2-EGFP (receptor): the binding entry in assay [1] is on record as “binds”.

B1: myc-tagged full-length human PTK7 (PTK7-MT) (receptor, UniProt Q13308 31-1070)
chain: T1 sequence
With B1, the binding result (in the assay with Ror2Δ745-Flag; with Ror2ΔCRD/KR∆745-Flag; in assay [2]) was “binds” throughout.
